In paper PMC11358003, “A bispecific antibody approach for the potential prophylactic treatment of inherited bleeding disorders” (Nature Cardiovascular Research, 2024):
Results are given in words; binding and its absence hold for the method and conditions named. A result given as binding can be weak or reduced; the word gives no strength.

Biological target: T1, soluble extracellular fragment of TLT-1 (sTLT-1) (human) (UniProt Q86YW5)
T1 sequence: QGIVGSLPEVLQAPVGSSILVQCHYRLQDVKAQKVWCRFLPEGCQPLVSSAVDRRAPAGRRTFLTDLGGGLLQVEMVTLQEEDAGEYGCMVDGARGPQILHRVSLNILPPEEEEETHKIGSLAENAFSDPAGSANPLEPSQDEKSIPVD
Experiment: SPR; Biacore 8K, 25 °C, ABA injection; His-tagged sTLT-1 (400 nM) captured on immobilised anti-His antibody on a CM5 chip; fibrinogen 0-1,000 nM injected in running buffer, 1 μM HMB-001 or 1 μM pTLT-1 antibody; 10 mM HEPES, 150 mM NaCl, 0.05% polysorbate 20, pH 7.4, 5 mM CaCl2, 1 mg/ml BSA; not fitted; n = 2; both purified

binding: binds
Substance: fibrinogen (complex)
